Experimental data: patent US4618627A, “Catechol derivatives and pharmaceutical compositions thereof for inhibiting anaphylaxis (SRS-A)” (priority 1983, dated 1986)
At least one compound was matched to its structure with a doubt left.

Molecular target: cyclooxygenase
Assay: Assay of cyclooxygenase
Assay type: biochemical
Details: enzyme fraction from mastocytoma P-815 cells, [1-14C]-arachidonic acid, 37° C., 7 min; Probit method; read-out: IC 50 Cyclooxygenase
Description: (B) Assay of 5-lipoxygenase and cyclooygenase
The method was based on that of Koshihara et al^(1). In the case of assay of 5-lipoxygenase activity, an enzyme fraction from mastocytoma P-815 cells (10^7 cells/ml) was incubated with 0.2 μCi [1-^14 C]-arachidonic acid (56.9 Ci/mol), 0.8 mM CaCl2, 2×10^-5 M indoemthacin and various concentrations of test drugs at 37° C. for 5 min. In the case of assay of cyclooxygenase activity, CaCl2 and indomethacin were omitted from the above incubation mixture and incubation was performed at 37° C. for 7 min. Both reactions were terminated by adjusting the pH of the mixture to 3.0 with HCl. After extraction of the products with 8 volume ethyl acetate, each extract was concentrated and applied to TLC plate. For the separation of HETEs and prostaglandins, thin-layer chromatography was carried out using the solvent system: petroleum ether/diethyl ether/acetic acid (50:50:1) and ethyl acetate/2,2,4-trimethylpentane/acetic acid/water (11:5:2:10, upper phase), respectively. Radioactive spots were detected by autoradiography and scraped off and counted using a liquid scintillation spectrometer. The activities of 5-lipoxygenase and cyclooxygenase were expressed as the sum of radioactivities due to 5-HETE and 5,12-diHETE and due to PGD2, PGE2 and PGF2α, respectively. The IC 50 values were calculated by Probit method.

**Q.** With CC(=O)CCCCCCCc1ccc(O)c(O)c1 [Example 20, 9-(3,4-dihydroxyphenyl)-2-nonanone] as the molecule, how does the IC50 read?
**A.** Its IC50 is greater than 10 µM.
